In patent US6780884B2, “Derivating of tryptamine and analogous compounds and pharmaceutical formulations containing them” (Neurim Pharmaceuticals (1991) Ltd., priority 2000, dated 2004):
Some results were stated once for a whole list of compounds, not compound by compound.

Tested on: 125I-Melatonin Binding in Membranes of Hamster Brain
Assay: 125I-Melatonin binding in membranes of hamster brain (competition)
Details: 10^-6M
Method: ^125I-Melatonin Binding in Membranes of Hamster Brain
2 whole hamster brains were homogenized with Teflon-glass homogenizer in 10 vol/g tissue of ice cold Tris-HCl buffer (50 mmol/L Tris, 5 mmol/L CaCl2, pH=7.4) and spun at 10,000 g for 10 min. the supernatant were spun at 100,000 g for two hours to yield a crude synaptosomal pellet (P2).
Aliquots of suspended P2 (20 ul) were incubated at 37° C. with ^125I-melatonin (250 pM) for 60 mln. in Tris-Hcl buffer in the absence or presence of 1 nM-100 μM test-substances (ML compounds and melatonin). The binding reaction was terminated by the addition of 4 ml ice cold Tris buffer. Membranes were then collected by vacuum filtration using GF/C glass fiber filters and washed with 3×4 ml ice-cold buffer. The filters containing the bound ^125I-melatonin were assayed for the amount of radioactivity in a γ counter. […] ML-29, ML-30 and ML-31 (10^−6M) inhibited (≧20%) the specific ^125I-melatonin binding. ML-27, ML-28 and ML-23 reduced the specific ^125I-melatonin binding to a lesser extent (˜13%).

Row | SMILES | inhibition of the specific 125I-melatonin binding
1 | CC(=O)Nc1cc(NCCc2c[nH]c3ccc(C)cc23)c([N+](=O)[O-])cc1[N+](=O)[O-] [ML-29, 2,4-dinitro-5-(5′-methyltryptyl)aminoacetanilide] | ≥ 20%
2 | COc1ccc2[nH]cc(CCNc3cc(NC(C)=O)c([N+](=O)[O-])cc3[N+](=O)[O-])c2c1 [ML-30, 2,4-dinitro-5-(5′-methoxytryptyl)aminoacetanilide] | ≥ 20%
3 | Cc1ccc2[nH]cc(CCNc3cc(N)c([N+](=O)[O-])cc3[N+](=O)[O-])c2c1 [ML-31, N-(2,4-dinitro-5-aminophenyl)-5′-methyltryptamine] | ≥ 20%
